# The other results are listed elsewhere or left out.
# B1: Sp8391B-bot-388-20-388 (Bacteroides ovatus) (protein)
# chain: GCQNNDENEQHYDNKLFISASNFTKEILFKAGDTNVETGLSVAIAKPEEHDIKVTMSPAPELLSTYKLAYYDETAVLLSEEHYSMPETSTTIKSGSIVSPELPIEFINTGELDIKTTYVLPVTIKSVEGIGVLQSAKTYYYVFRGASLINVVCNISRNRAYPDFKNDSKFNNLTENTMEILFKANSFPNTLNTLMGIESNYLLRIGDATIPNNQLQVATSVNNCTSADLQLESGKWYHVAVAFNKGNVKVYINGVEKLSGSTGKSSVSLGAKHTNEEDGSRCFWVGYSYKDDRYFDGVVSEVRIWNRALTAEEIQATNHFYTIEPESEGLIAYWKFDEGSGTVAKDYSVSGYDLTIEKEPKWESVSLPQ
# Tests used:
# Assay in all cases: glycan array binding signal (z-score within array); higher = stronger binding
# Details in all cases: glycan notation: IUPAC condensed, linker removed
# Neu5Ac(a2-8)Neu5Ac = biological target: Neu5Ac(a2-8)Neu5Ac
# Summary of the method: (§1)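 From the Consortium for Functional Glycomics database, 3228 arrays were curated, keeping only those whose protein sequence was available. Binding is given as a within-array Z-score averaged across arrays sharing a protein sequence and across linkers. Negative Z-scores can be read as non-binding.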
# [1] = biological target: Neu5Ac(a2-8)Neu5Ac(a2-3)Gal(b1-3)GalNAc(b1-4)[Neu5Ac(a2-3)]Gal(b1-4)Glc
# Summary of the method: as §1
# [2] = biological target: Neu5Ac(a2-8)Neu5Ac(a2-3)Gal(b1-3)GalNAc(b1-4)[Neu5Ac(a2-8)Neu5Ac(a2-3)]Gal(b1-4)Glc
# Summary of the method: as §1
# [3] = biological target: Neu5Ac(a2-8)Neu5Ac(a2-3)Gal(b1-4)Glc
# Summary of the method: as §1
# [4] = biological target: Neu5Ac(a2-8)Neu5Ac(a2-3)Gal(b1-4)GlcNAc
# Summary of the method: as §1
# [5] = biological target: Neu5Ac(a2-8)Neu5Ac(a2-3)[Gal(b1-3)GalNAc(b1-4)]Gal(b1-4)Glc
# Summary of the method: as §1
# [6] = biological target: Neu5Ac(a2-8)Neu5Ac(a2-3)[GalNAc(b1-4)]Gal(b1-4)Glc
# Summary of the method: as §1
# [7] = biological target: Neu5Ac(a2-8)Neu5Ac(a2-8)Neu5Ac
# Summary of the method: as §1
# [8] = biological target: Neu5Ac(a2-8)Neu5Ac(a2-8)Neu5Ac(a2-3)Gal(b1-4)Glc
# Summary of the method: as §1
# [9] = biological target: Neu5Ac(a2-8)Neu5Ac(a2-8)Neu5Ac(a2-3)[Gal(b1-3)GalNAc(b1-4)]Gal(b1-4)Glc
# Summary of the method: as §1
# [10] = biological target: Neu5Ac(a2-8)Neu5Ac(a2-8)Neu5Ac(a2-3)[GalNAc(b1-4)]Gal(b1-4)Glc
# Summary of the method: as §1
# [11] = biological target: Neu5Ac(a2-8)Neu5Ac(a2-8)Neu5Ac(a2-8)Neu5Ac(a2-3)[GalNAc(b1-4)]Gal(b1-4)Glc
# Summary of the method: as §1
# [12] = biological target: Neu5Ac(a2-8)Neu5Gc(a2-3)Gal(b1-4)GlcNAc
# Summary of the method: as §1
# [13] = biological target: Neu5Ac(b2-6)Gal(b1-4)GlcNAc
# Summary of the method: as §1
# Neu5Ac(b2-6)GalNAc = biological target: Neu5Ac(b2-6)GalNAc
# Summary of the method: as §1
# [14] = biological target: Neu5Ac9Ac(a2-3)Gal(b1-3)GlcNAc
# Summary of the method: as §1
# [15] = biological target: Neu5Ac9Ac(a2-3)Gal(b1-4)GlcNAc
# Summary of the method: as §1
# [16] = biological target: Neu5Ac9Ac(a2-6)Gal(b1-4)GlcNAc
# Summary of the method: as §1
# [17] = biological target: Neu5Gc(a2-3)Gal(b1-3)GlcNAc
# Summary of the method: as §1
# [18] = biological target: Neu5Gc(a2-3)Gal(b1-3)[Fuc(a1-4)]GlcNAc
# Summary of the method: as §1
# Neu5Gc(a2-3)Gal(b1-4)Glc = biological target: Neu5Gc(a2-3)Gal(b1-4)Glc
# Summary of the method: as §1
# [19] = biological target: Neu5Gc(a2-3)Gal(b1-4)GlcNAc
# Summary of the method: as §1
# [20] = biological target: Neu5Gc(a2-3)Gal(b1-4)GlcNAc(b1-3)Gal(b1-4)GlcNAc(b1-2)Man(a1-3)[Neu5Gc(a2-3)Gal(b1-4)GlcNAc(b1-3)Gal(b1-4)GlcNAc(b1-2)Man(a1-6)]Man(b1-4)GlcNAc(b1-4)GlcNAc
# Summary of the method: as §1
# [21] = biological target: Neu5Gc(a2-3)Gal(b1-4)[Fuc(a1-3)]GlcNAc
# Summary of the method: as §1
# [22] = biological target: Neu5Gc(a2-6)Gal(b1-4)GlcNAc
# Summary of the method: as §1
# Neu5Gc(a2-6)GalNAc = biological target: Neu5Gc(a2-6)GalNAc
# Summary of the method: as §1
# [23] = biological target: Neu5Gc(a2-8)Neu5Ac(a2-3)Gal(b1-4)GlcNAc
# Summary of the method: as §1
# [24] = biological target: Neu5Gc(a2-8)Neu5Gc(a2-3)Gal(b1-4)GlcNAc
# Summary of the method: as §1
# [25] = biological target: Neu5Gc(a2-8)Neu5Gc(a2-3)Gal(b1-4)GlcNAc(b1-3)Gal(b1-4)GlcNAc
# Summary of the method: as §1
# [26] = biological target: Neu5Gc(a2-8)Neu5Gc(a2-6)Gal(b1-4)GlcNAc
# Summary of the method: as §1
# [27] = biological target: Neu5Gc(b2-6)Gal(b1-4)GlcNAc
# Summary of the method: as §1
binder,measurement,setting,value
B1,glycan array binding signal (z-score),Neu5Ac(a2-8)Neu5Ac,0.603
same,glycan array binding signal (z-score),[1],-0.67
same,glycan array binding signal (z-score),[2],-0.512
same,glycan array binding signal (z-score),[3],-0.27
same,glycan array binding signal (z-score),[4],-0.447
same,glycan array binding signal (z-score),[5],-0.389
same,glycan array binding signal (z-score),[6],0.19
same,glycan array binding signal (z-score),[7],-0.412
same,glycan array binding signal (z-score),[8],0.117
same,glycan array binding signal (z-score),[9],1.09
same,glycan array binding signal (z-score),[10],-0.456
same,glycan array binding signal (z-score),[11],0.263
same,glycan array binding signal (z-score),[12],1.29
same,glycan array binding signal (z-score),[13],0.013
same,glycan array binding signal (z-score),Neu5Ac(b2-6)GalNAc,0.549
same,glycan array binding signal (z-score),[14],-0.653
same,glycan array binding signal (z-score),[15],0.166
same,glycan array binding signal (z-score),[16],-0.27
same,glycan array binding signal (z-score),[17],-0.666
same,glycan array binding signal (z-score),[18],-0.742
same,glycan array binding signal (z-score),Neu5Gc(a2-3)Gal(b1-4)Glc,0.407
same,glycan array binding signal (z-score),[19],-0.081
same,glycan array binding signal (z-score),[20],-0.078
same,glycan array binding signal (z-score),[21],-0.7
same,glycan array binding signal (z-score),[22],-0.424
same,glycan array binding signal (z-score),Neu5Gc(a2-6)GalNAc,0.187
same,glycan array binding signal (z-score),[23],-0.076
same,glycan array binding signal (z-score),[24],-0.726
same,glycan array binding signal (z-score),[25],-1.02
same,glycan array binding signal (z-score),[26],-0.292
same,glycan array binding signal (z-score),[27],-0.136

# An excerpt of these results, as tab-separated lines:
binder	measurement	setting	value
B1	glycan array binding signal (z-score)	[19]	-0.081
same	glycan array binding signal (z-score)	[23]	-0.076

# Reference: the supplement of paper PMC8728848
